Test results: publication PMC11329700

Experiments:
[1] = target: GST-Dyn1xA-PRR 751-798 (rat); experiment: pull-down; GST fusion proteins on GSH-sepharose beads incubated with pre-cleared rat brain synaptosomal lysate (20 mM Tris pH 7.4, 150 mM NaCl, 1% Triton X-100, 1 mM EDTA, 1 mM EGTA) at 4 °C for 1 h; bound proteins by Coomassie stain or Western blot (some blots quantified by densitometry); only the target purified
[2] = target: GST-Dyn1xB-PRR (dynamin 1xB proline-rich region, amino acids 746-851) (rat); experiment: as above

B1: Amphiphysin 1 (protein, UniProt O08838 1-683)
chain: MADIKTGIFAKNVQKRLNRAQEKVLQKLGKADETKDEQFEEYVQNFKRQEAEGTRLQRELRGYLAAIKGMQEASMKLTESLHEVYEPDWYGREDVKMVGEKCDVLWEDFHQKLVDGSLLTLDTYLGQFPDIKNRIAKRSRKLVDYDSARHHLEALQSSKRKDESRISKAEEEFQKAQKVFEEFNVDLQEELPSLWSRRVGFYVNTFKNVSSLEAKFHKEIAVLCHKLYEVMTKLGDQHADKAFSIQGAPSDSGPLRIAKTPSPPEEASPLPSPTASPNHTLAPASPAPVRPRSPSQTRKGPPVPPLPKVTPTKELQQENIINFFEDNFVPEINVTTPSQNEVLEVKKEETLLDLDFDPFKPDVTPAGSAAATHSPMSQTLPWDLWTTSTDLVQPASGGSFNDFTQPQDTSLFTMQTDQNMAETEQALPTEPQAEEPPTTAAAPTAGLDLGLEMEEPKEEAAIPPGTDAGETVGTEGSTGEEAEAEKAALPAGEGESPEGAKIDVESTELASSESPQAAELEAGAPQEKVIPSVVIEPASNHEGEEHQETTTGTETREATEDVAPQGPAGEKQELATEPTPLDSQAATPAPAGAVDASLSAGDAAQELPPGFLYKVETLHDFEAANSDELTLQRGDVVLVVPSDSEADQDAGWLVGVKESDWLQYRDLATYKGLFPENFTRHLE
binding [1]: no binding | binding [2]: binds

No constants are given. Whether binding was seen depends on the method and setting. In cells and extracts the contact can be indirect. For some assays here: Binding calls can cover weak binding; strength is not graded here.
